Assay: general procedure: peptide synthesis; cyanomethyl ester activation, then amine
Details: late stage modification step, free base, acetate, hydrochloride or trifluoroacetate

N^15 -tert-butyloxycarbonyl (t-Boc) deglucoteicoplanin
step yield: 92%

Reference: patent publication US5500410A (Gruppo Lepetit S.p.A., priority 1989, dated 1996)
